Reference: PubChem BioAssay AID493014 (National Center for Advancing Translational Sciences (NCATS), 2011)
Among all 340,000 compounds or so, about 170 (0.05%) were called active. Inconclusive results, whose numbers are uncertain, are shown with a selection of clear calls. The call rests on the fitted dose curve; in most records, active means well fitted inhibition curve with a large enough effect in the signal ratio, with a control signal flat (not every such curve was filed as active); inconclusive means small, poorly fitted or top-dose-only effect, or effect the other way, or a change in a side signal; inactive means flat fitted curve, though single readings scatter; the % refers to the signal ratio. Potencies beside an inconclusive call are fits to weak or partial responses and may not hold up.

Assay: qHTS Assay to Find Inhibitors of Chronic Active B-Cell Receptor Signaling;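 on activity change, negative = inhibition: plate controls were basal doxycycline-induced cells for no effect and cells given 10 µM MG132 for full effect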
Conditions: ABC-DLBCL IkBa-CBG/CBR reporter, luminescence ratio (green luciferase fused to IkBa over red control in TMD8 lymphoma cells), 4 h; activity change, negative = inhibition: at 46.1 µM (top of the series) unless noted
Procedure, shortened: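 Cell line TMD8 (human ABC DLBCL), stably expressing tet-inducible CBG68-IkBa fusion and CBR; IMDM/0.5% FBS; cpd up to 46 uM; dox induction, 4 h, 37C/5% CO2; dual luminescence; green/red ratio; MG132 control.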
Potency means the concentration at half of the fitted maximal effect.

| SMILES | Potency | activity change, negative = inhibition |
| --- | --- | --- |
| CCCCn1c(C)cc2cc(O)ccc21 | inconclusive: 0.231 µM [rising, full curve, poor fit] | – |
| Cc1c(C(=O)N2CCCCC2)c(S(=O)(=O)N2CCN(c3ccc(F)cc3)CC2)c(C)n1C | – | inactive |
| O=C(c1ccco1)N1CCN(C(=O)c2ccc(-c3ccccc3Cl)o2)CC1 | – | inconclusive: -2.27% |
| Cc1cccnc1Nc1nc(-c2ccccn2)cs1 | inconclusive: 3.66 µM [cytotoxic, single point] | – |
| CCCCn1c(N)c(N(C(=O)CSc2nnnn2-c2ccccc2)C2CCCC2)c(=O)[nH]c1=O | – | inconclusive: 2.09% |
| Cc1cccc(Nc2ncnc3ccccc23)c1 | – | inconclusive: -13.2% |
| Cc1ccc(S(=O)(=O)N2CCC(C(=O)NNC(=O)c3ccccc3O)CC2)cc1 | – | inactive |
| C/C(=N/NC(=O)c1cc(-c2cccc([N+](=O)[O-])c2)n[nH]1)c1cccc(O)c1 | inconclusive: 8.91 µM [falling, partial curve] | – |
| Cc1nc2nc(COc3ccccc3)[nH]n2c(=O)c1C | inconclusive: 5.8 µM [falling, single point] | – |
| CCOc1ccccc1N(CC(=O)Nc1cc(OC)ccc1OC)S(=O)(=O)c1ccccc1 | – | inconclusive: 8.8% |
| COc1ccc(OC)c(-c2csc(NC(=O)COC(=O)C3CC3)n2)c1 | – | inconclusive: -2.6% |
| Cc1ccc(C)c(NC(=O)CSc2nnc(NC(=O)Nc3ccccc3)s2)c1 | – | inactive |
| Cc1ccc(OCCOC(=O)c2c(-c3ccccc3)noc2C)cc1 | – | inactive |
| COc1ccc(OCc2cc(C(=O)NC(C)c3csc(C)n3)no2)c(Cl)c1 (stereo not drawn) | – | inactive |
| COc1ccc(OCCCC(=O)Nc2nc(C)c(C(C)=O)s2)cc1 | – | inconclusive: 0.0704% |
| CC(C)(C)NC(=O)CN1CCCN(C(=O)c2cccc(S(=O)(=O)N3CCc4ccccc43)c2)CC1 | – | inactive |
| COc1ncccc1C(=O)NC1CCCc2c1cnn2-c1cc(C)cc(C)c1 (stereo not drawn) | – | inactive |
| CCN(C1CCCCC1)S(=O)(=O)c1cn(C)c(=O)n(C)c1=O | – | inconclusive: 9.73% |
| COc1ccc(Nc2cc(C(=O)NCCCN3CCOCC3)c3ccccc3n2)cc1OC | inconclusive: 20.6 µM [rising, single point] | – |
| COc1ccc(/C=N/n2c(C3CCCCC3)n[nH]c2=S)c(OC)c1 | – | inactive |
| COc1cccc(C2C(C#N)=C(N)N(N(C)C)C3=C2C(=O)CC(C)(C)C3)c1OC (stereo not drawn) | – | inconclusive: 3.61% |
| CC1CCCCC1NC(=O)/C(C#N)=C/c1ccc(F)c(F)c1 (stereo not drawn) | inconclusive: 20.6 µM [falling, partial curve] | – |
| COc1ccccc1NC(=O)C1=C(C)Nc2nnnn2C1c1cc(Br)ccc1OC (stereo not drawn) | – | inconclusive: -21.1% |
| CCc1ncc(CN2CCCC(C(=O)Nc3ccc(-c4cscn4)cc3)C2)cn1 (stereo not drawn) | inconclusive: 14.1 µM [falling, partial curve] | – |
| Oc1ccc(C2C=C(c3ccc(F)cc3)Nc3ncnn32)cc1 (stereo not drawn) | inconclusive: 3.16 µM [falling, partial curve, poor fit] | – |
| CCOc1ccc2nc(NC(=O)C3CCCN(S(=O)(=O)c4cccs4)C3)sc2c1 (stereo not drawn) | – | inactive |

| SMILES | Potency | activity change, negative = inhibition |
| --- | --- | --- |
| CCOc1ccc(NC(=O)CN(C)C(=O)c2ccc(C)o2)cc1OCC | – | inactive |
| COc1ccc(NC(=O)C(c2ccccc2)N2Cc3ccccc3C2=O)cc1 (stereo not drawn) | – | inconclusive: 4.15% |
| Cc1cc(C)c2[nH]c(=O)c(CN(Cc3ccc4c(c3)OCO4)Cc3nnnn3C3CCCC3)cc2c1 | – | inconclusive: 0.141% |
| COc1cc(S(=O)(=O)N2CCN(c3ccccn3)CC2)ccc1Br | – | inconclusive: -8.44% |
| COc1cc(Cl)c(S(=O)(=O)N2CCOCC2)cc1Cl | – | inconclusive: 9.57% |
| COc1ccccc1-c1cc(C(=O)N2CCN(c3ccccc3)CC2)no1 | inconclusive: 5.62 µM [rising, single point] | – |
| CCOC(=O)N1CCN(C(=O)C(C)N(c2ccccc2)S(C)(=O)=O)CC1 (stereo not drawn) | – | inconclusive: -7.4% |
| O=c1[nH]c(-c2ccc(Cl)cc2)nc(=S)[nH]1 | inconclusive: 15.8 µM [falling, partial curve, poor fit] | – |
| O=C(N[C@@H]1C/C=C\C[C@@H](CC(=O)N(CCO)Cc2ccccc2)C(=O)NC[C@H](c2ccccc2)OC1=O)OCC1c2ccccc2-c2ccccc21 | – | inconclusive: -12% |
| COc1ccc(-c2nc3c(-c4ccccc4)cnn3cc2C)cc1F | inconclusive: 5.01 µM [falling, partial curve] | – |
| CCn1c(SCC(=O)N/N=C/C=C/c2ccco2)nnc1-c1ccc(OC)cc1 | – | inactive |
| CC(C)(C)c1ccc(-c2noc(CCC(=O)NCC3CCCO3)n2)cc1 (stereo not drawn) | inconclusive: 29.1 µM [falling, single point] | – |
| CCOC(=O)c1ccc(CN2C(=O)c3ccccc3S2(=O)=O)cc1 | – | inconclusive: 0.136% |
| OCCOCCN1CCN(C(=S)Nc2ccccc2)CC1 | – | inconclusive: 2.85% |
| Cc1cc(C)c(-c2cc(C(=O)Nc3c(C)n(C)n(-c4ccccc4)c3=O)[nH]n2)c(O)c1 | inconclusive: 29.1 µM [falling, single point] | – |
| O=C(N/N=C\c1ccccc1)c1ccccc1-n1cccc1 | – | inconclusive: 10.9% |
| CCc1ccc(C2=CC(c3cccc(C)c3)n3c(nc4ccccc43)N2)cc1 (stereo not drawn) | inconclusive: 3.55 µM [rising, partial curve, poor fit] | – |
| COc1cc(NC(=O)c2cc3cccc(OC)c3o2)cc(C(=O)Nc2cccc(C(F)(F)F)c2)c1 | inconclusive: 2.82 µM [falling, full curve] | – |
| CC(=O)n1cc(C(C[N+](=O)[O-])SCCN)c2ccccc21 (stereo not drawn) | inconclusive: 25.1 µM [falling, single point] | – |
| CC(=O)Nc1ccc(S(=O)(=O)NCCC(=O)Nc2cccc(Cl)c2)cc1 | – | inconclusive: -1.24% |
| O=C(O)C1CC=CCC1C(=O)c1ccccc1 (stereo not drawn) | – | inconclusive: 11% |
| Cc1cc(C)cc(-n2nnnc2SCC(=O)Nc2cccc(NC(=O)c3ccco3)c2)c1 | inconclusive: 11.2 µM [falling, partial curve] | – |
| CC(C)N(Cc1ccccc1)C(=O)COc1ccccc1 | – | inconclusive: 4.77% |
| CC1=C(C(=O)OC2CCCC2)C(c2ccc(C)o2)C2=C(CC(c3cccs3)CC2=O)N1 (stereo not drawn) | – | inconclusive: 21.3% |
| COc1ccc(CC(=O)NCC2(c3ccc(OC)c(OC)c3)CCOCC2)cc1 | – | inactive |
| O=C(Nc1ccncc1)Nc1ccc(Cl)cc1 | – | inactive |

2 neighbouring records already listed, quoted:

| SMILES | Potency | activity change, negative = inhibition |
| --- | --- | --- |
| OCCOCCN1CCN(C(=S)Nc2ccccc2)CC1 | – | inconclusive: 2.85% |
| Cc1cc(C)c(-c2cc(C(=O)Nc3c(C)n(C)n(-c4ccccc4)c3=O)[nH]n2)c(O)c1 | inconclusive: 29.1 µM [falling, single point] | – |

Next compounds follow.

| SMILES | Potency | activity change, negative = inhibition |
| --- | --- | --- |
| COc1cccc(NC(=S)N(CCCN2CCCC2)Cc2cccn2Cc2ccc(Cl)cc2)c1 | inconclusive: 11.2 µM [falling, partial curve, poor fit] | – |
| Cc1ccc(NC(=O)NCc2nc3ccccc3n2C)cc1 | – | inactive |
| O=S(=O)(Nc1ccccc1)c1ccc(NS(=O)(=O)c2cccs2)cc1 | – | inconclusive: 7.98% |
| CCOC(=O)CSCc1c(C#N)c2ccccc2n1C | – | inactive |
| COc1ccccc1NC(=O)CSc1nnnn1-c1ccccc1OC | inconclusive: 12.6 µM [falling, single point] | – |
| CCNC(=O)N1CCN(CCCC(c2ccc(F)cc2)c2ccc(F)cc2)CC1 | – | inconclusive: -6.41% |
| CCOC(=O)c1sc(NC(=O)c2cccc(S(=O)(=O)N3CCc4ccccc43)c2)c(C#N)c1C | – | inactive |
| Cc1ccc(-c2ccc(=O)n(CCC(=O)N3CCN(c4ccccc4)CC3)n2)cc1 | inconclusive: 31.6 µM [falling, partial curve, poor fit] | – |
| C/C(Cn1nnc([N+](=O)[O-])n1)=N\NC(=O)c1ccccc1Cl | inconclusive: 31.6 µM [falling, partial curve] | – |
| Cc1[nH]c2ccccc2c1SCC(=O)N1CCN(c2ccccc2)CC1 | – | inactive |
| COc1cccc(NC(=S)N2CCN(C/C=C/c3ccccc3)CC2)c1 | – | inactive |
| CCCNC(=O)CN(CCc1ccccc1)S(C)(=O)=O | – | inconclusive: -6.11% |
| O=[N+]([O-])c1ccc(C(c2sc3nc(-c4ccco4)nn3c2O)N2CCN(Cc3ccccc3)CC2)cc1 (stereo not drawn) | – | inactive |
| CSc1cccc(NC(=S)NCCCN2CCN(c3ccc(F)cc3)CC2)c1 | – | inactive |
| CCCCN(C)CC(O)Cn1cc(/C=C/C(=O)c2cccs2)c2ccccc21 (stereo not drawn) | – | inconclusive: -10.9% |
| NS(=O)(=O)c1ccc(NC(=O)COC(=O)CN2C(=O)C3CC=CCC3C2=O)cc1 (stereo not drawn) | – | inconclusive: 0.218% |
| Cc1ccccc1C(=O)NC(C)C1CC2CCC1C2 (stereo not drawn) | – | inconclusive: 8.2% |
| Cc1ccccc1Cn1ccc(NC(=O)c2cc3ncc(Br)cn3n2)n1 | – | inconclusive: -15.1% |
| COc1ccc(N2CCN(C(=O)CN=C3NS(=O)(=O)C(c4ccc(C)cc4)=C3C)CC2)cc1 | – | inactive |
| CCOC(=O)C1=C(COC(=O)/C=C/c2cccc(OC)c2OC)NC(=O)NC1C (stereo not drawn) | inconclusive: 17.8 µM [falling, single point] | – |
| CC(NC(=O)COc1ccc(/C=N/NC(=O)CO)cc1)c1ccccc1 (stereo not drawn) | – | inactive |
| O=C(Nc1ccc(NC(=O)c2ccccc2O)cc1)Nc1ccc(F)cc1F | – | inactive |
| Nc1ccc(C(=O)OCC(=O)Nc2ccc([N+](=O)[O-])cc2C(F)(F)F)cc1 | inconclusive: 32.6 µM [falling, single point] | – |
| CCc1cc(C(c2ccc(OC)c(OC)c2)N2CCOCC2)c(NC(=O)c2ccccc2)s1 (stereo not drawn) | inconclusive: 23.1 µM [falling, single point] | – |
| CCc1ccccc1Nc1nc(N)nc(CSc2nnc3ccccn23)n1 | – | inconclusive: -2.1% |
| CCOc1ccc(C(C)=O)cc1CSc1nc(C)cc(C)n1 | – | inactive |

One compound at a time (already shown):
`O=C(Nc1ccc(NC(=O)c2ccccc2O)cc1)Nc1ccc(F)cc1F` is entered as activity change, negative = inhibition: inactive
`CCNC(=O)N1CCN(CCCC(c2ccc(F)cc2)c2ccc(F)cc2)CC1` is entered as activity change, negative = inhibition: inconclusive: -6.41%
`Cc1ccc(NC(=O)NCc2nc3ccccc3n2C)cc1` is entered as activity change, negative = inhibition: inactive
